# Assay results published in the supplement of paper PMC12067093, “Discovery and optimisation of a covalent ligand for TRIM25 and its application to targeted protein ubiquitination” (Chemical Science, 2025).
# Chains of the proteins cited; added tags and fusions are not shown. Lines headed by an entry give the natural chain unless they say otherwise; changes in a name come on top.
# UniProt Q9Y4P3: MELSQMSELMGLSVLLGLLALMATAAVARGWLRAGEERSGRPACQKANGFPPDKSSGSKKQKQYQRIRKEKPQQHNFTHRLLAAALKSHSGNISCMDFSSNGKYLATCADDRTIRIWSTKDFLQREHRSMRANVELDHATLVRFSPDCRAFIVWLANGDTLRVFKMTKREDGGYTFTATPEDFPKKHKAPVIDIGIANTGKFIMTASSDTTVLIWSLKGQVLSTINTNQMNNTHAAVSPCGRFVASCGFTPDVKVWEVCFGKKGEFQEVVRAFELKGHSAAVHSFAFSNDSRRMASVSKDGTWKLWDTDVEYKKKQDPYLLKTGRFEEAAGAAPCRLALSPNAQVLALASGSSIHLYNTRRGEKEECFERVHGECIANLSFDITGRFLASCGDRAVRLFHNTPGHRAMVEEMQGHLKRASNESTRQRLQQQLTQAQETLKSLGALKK
# UniProt Q9NVG8: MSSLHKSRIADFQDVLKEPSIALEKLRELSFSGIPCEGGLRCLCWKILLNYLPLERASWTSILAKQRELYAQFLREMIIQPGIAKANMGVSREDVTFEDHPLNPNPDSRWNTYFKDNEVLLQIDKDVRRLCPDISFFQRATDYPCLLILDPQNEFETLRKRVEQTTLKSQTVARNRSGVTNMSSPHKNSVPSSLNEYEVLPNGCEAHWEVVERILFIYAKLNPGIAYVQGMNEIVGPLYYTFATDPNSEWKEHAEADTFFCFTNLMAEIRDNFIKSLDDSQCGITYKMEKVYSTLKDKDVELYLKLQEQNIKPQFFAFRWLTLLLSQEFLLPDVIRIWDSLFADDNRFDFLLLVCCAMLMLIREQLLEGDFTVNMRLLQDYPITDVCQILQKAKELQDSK
# UniProt Q9C0B7: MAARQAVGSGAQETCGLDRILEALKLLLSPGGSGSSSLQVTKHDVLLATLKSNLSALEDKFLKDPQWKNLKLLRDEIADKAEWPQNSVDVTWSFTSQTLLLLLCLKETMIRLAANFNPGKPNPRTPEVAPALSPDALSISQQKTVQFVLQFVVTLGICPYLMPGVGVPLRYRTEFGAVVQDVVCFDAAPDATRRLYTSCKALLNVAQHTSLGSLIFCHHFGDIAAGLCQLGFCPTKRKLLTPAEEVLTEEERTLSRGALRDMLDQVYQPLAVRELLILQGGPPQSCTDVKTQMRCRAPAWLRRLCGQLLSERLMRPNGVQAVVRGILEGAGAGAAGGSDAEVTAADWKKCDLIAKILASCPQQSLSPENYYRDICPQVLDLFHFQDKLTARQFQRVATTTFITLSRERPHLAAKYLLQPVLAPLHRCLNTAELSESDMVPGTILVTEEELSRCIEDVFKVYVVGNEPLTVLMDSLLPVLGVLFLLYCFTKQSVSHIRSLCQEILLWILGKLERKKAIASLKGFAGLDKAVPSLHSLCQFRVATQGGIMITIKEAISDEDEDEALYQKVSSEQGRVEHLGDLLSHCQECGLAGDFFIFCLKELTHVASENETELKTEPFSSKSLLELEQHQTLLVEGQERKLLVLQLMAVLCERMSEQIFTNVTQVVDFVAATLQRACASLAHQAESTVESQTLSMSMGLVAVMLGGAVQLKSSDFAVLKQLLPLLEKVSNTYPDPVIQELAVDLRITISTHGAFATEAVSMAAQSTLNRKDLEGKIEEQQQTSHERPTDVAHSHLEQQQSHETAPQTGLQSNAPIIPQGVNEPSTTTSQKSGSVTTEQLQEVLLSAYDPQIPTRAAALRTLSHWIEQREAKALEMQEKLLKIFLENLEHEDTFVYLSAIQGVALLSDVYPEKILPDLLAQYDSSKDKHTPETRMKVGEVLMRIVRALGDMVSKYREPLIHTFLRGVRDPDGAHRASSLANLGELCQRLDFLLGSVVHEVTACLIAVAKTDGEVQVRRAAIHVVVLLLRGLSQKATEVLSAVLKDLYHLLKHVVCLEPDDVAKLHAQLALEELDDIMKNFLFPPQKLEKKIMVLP
# UniProt Q6P1N9: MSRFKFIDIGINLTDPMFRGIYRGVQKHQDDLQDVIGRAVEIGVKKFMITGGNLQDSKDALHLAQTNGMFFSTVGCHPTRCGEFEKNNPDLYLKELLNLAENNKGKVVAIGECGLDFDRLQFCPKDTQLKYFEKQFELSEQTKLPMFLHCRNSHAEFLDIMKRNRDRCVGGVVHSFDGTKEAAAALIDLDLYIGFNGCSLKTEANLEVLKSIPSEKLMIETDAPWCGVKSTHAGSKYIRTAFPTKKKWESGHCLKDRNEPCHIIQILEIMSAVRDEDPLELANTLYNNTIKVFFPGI
# UniProt O75410: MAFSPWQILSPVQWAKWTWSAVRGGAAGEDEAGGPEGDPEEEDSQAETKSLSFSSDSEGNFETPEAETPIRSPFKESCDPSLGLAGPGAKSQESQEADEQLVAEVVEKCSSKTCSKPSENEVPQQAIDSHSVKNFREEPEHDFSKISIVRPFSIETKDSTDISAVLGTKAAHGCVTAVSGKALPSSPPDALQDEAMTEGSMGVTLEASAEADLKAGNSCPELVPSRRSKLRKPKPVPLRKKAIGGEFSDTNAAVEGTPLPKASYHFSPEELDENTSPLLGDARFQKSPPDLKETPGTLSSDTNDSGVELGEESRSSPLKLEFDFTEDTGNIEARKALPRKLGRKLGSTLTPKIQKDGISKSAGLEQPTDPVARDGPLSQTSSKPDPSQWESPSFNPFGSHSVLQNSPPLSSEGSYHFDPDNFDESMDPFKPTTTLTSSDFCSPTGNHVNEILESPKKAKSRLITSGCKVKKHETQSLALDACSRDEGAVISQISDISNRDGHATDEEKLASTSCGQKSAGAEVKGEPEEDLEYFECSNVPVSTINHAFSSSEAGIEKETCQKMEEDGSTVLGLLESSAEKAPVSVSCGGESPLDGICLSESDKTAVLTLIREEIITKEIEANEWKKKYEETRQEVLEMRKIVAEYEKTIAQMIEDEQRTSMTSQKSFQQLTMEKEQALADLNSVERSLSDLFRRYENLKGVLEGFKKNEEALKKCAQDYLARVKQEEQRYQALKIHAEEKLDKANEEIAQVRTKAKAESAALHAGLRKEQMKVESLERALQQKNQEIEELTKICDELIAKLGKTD
# UniProt Q86TI0: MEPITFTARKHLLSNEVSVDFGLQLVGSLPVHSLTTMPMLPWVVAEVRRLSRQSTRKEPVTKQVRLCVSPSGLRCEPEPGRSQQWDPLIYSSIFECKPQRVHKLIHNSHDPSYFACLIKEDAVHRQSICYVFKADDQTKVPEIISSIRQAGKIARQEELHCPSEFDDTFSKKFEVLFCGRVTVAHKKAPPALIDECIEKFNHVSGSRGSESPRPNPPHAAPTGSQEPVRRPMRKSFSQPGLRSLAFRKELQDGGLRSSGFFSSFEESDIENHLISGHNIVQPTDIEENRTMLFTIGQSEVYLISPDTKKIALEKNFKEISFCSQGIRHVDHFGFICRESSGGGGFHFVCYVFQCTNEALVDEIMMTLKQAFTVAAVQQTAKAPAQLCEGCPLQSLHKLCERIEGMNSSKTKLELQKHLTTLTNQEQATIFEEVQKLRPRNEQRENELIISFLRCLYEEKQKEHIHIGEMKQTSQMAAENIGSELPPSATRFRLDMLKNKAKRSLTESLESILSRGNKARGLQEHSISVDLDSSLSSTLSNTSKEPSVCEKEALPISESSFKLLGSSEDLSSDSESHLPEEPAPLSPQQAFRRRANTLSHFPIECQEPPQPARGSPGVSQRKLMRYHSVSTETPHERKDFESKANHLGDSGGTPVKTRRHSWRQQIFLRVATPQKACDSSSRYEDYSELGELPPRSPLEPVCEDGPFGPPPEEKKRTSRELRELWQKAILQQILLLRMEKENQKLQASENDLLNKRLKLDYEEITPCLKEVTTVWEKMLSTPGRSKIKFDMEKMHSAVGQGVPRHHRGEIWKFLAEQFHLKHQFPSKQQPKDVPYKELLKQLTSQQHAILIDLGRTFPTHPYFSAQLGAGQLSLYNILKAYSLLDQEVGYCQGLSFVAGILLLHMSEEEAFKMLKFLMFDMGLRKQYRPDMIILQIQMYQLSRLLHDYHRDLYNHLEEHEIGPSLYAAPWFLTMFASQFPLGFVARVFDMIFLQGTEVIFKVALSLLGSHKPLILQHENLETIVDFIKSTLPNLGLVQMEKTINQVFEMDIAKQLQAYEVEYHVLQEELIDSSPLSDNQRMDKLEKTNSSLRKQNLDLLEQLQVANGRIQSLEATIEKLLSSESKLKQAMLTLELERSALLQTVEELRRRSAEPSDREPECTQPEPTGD
# UniProt Q9UL54: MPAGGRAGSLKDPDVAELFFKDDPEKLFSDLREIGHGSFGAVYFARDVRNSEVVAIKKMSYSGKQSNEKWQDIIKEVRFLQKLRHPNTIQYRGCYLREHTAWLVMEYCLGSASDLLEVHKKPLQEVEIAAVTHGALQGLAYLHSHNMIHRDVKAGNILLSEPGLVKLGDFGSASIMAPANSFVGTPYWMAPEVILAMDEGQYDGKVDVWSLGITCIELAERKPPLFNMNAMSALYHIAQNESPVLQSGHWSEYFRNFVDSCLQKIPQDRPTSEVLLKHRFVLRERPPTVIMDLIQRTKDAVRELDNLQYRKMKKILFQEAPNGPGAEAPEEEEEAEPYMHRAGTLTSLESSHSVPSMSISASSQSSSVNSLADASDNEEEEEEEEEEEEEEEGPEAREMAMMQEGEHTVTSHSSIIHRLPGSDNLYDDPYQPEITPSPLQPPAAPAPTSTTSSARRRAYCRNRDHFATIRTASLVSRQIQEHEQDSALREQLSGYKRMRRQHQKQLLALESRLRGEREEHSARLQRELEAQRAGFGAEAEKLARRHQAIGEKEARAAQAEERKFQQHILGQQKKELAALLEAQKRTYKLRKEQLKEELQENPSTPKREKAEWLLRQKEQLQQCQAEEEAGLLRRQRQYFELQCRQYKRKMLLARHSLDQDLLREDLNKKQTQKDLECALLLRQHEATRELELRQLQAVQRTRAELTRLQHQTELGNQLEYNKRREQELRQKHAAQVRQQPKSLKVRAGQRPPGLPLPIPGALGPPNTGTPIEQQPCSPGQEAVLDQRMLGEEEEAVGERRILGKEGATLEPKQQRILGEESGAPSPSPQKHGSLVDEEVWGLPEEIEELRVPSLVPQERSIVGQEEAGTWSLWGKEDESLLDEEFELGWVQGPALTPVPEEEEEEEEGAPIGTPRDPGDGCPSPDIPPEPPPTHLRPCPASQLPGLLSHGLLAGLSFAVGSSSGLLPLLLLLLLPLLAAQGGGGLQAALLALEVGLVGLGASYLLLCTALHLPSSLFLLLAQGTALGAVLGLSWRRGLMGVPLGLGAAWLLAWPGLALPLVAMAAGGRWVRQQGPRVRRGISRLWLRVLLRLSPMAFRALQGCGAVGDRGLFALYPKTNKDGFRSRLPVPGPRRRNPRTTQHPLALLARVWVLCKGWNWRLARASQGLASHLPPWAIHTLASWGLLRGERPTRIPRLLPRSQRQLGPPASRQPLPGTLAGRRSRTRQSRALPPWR
# UniProt Q8TEA7: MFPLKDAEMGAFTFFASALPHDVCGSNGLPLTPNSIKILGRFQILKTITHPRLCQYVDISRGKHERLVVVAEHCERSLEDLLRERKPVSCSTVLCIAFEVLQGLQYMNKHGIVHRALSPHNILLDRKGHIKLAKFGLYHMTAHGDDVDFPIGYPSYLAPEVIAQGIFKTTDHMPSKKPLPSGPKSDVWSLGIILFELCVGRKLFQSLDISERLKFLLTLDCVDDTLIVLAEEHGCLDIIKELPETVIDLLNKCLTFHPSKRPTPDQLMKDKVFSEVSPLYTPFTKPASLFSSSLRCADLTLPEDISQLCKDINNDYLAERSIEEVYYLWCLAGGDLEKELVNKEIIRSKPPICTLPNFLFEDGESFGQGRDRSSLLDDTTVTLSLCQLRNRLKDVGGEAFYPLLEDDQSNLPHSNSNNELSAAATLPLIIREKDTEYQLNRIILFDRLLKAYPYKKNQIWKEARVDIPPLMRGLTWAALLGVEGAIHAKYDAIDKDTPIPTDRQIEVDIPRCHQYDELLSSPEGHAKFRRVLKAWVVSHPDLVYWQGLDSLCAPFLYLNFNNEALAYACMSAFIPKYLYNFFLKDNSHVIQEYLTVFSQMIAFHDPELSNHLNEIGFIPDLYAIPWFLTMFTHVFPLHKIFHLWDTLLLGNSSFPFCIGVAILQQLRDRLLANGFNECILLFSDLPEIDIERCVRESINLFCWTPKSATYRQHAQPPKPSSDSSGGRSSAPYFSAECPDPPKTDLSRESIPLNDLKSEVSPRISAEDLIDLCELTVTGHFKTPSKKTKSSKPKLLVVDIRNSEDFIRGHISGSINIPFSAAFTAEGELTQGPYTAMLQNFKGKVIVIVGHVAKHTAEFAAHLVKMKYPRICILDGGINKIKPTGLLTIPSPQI
# UniProt Q96EI5: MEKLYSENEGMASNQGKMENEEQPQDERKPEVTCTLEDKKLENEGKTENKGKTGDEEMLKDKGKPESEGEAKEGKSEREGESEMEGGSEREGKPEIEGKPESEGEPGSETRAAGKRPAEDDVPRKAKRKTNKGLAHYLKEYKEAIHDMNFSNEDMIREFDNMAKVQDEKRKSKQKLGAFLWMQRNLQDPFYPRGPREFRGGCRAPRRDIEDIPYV
# The other results are listed elsewhere or left out.
# Compound: CC1Cc2ccccc2N1C(=O)C1CCCN(C1)C(=O)CCl (mixture of isomers) [TRIM25 ligand 11 (diastereomer mixture)]
# Assay: probe-labelled cysteine peptide fold change vs DMSO (competition) (log2 fold change); higher = less target engagement (more negative = stronger competition)
# Settings: THP-1, incubation time: 4 h
# 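Also: competitive chemoproteomic profiling in live THP-1 cells with an iodoacetamide desthiobiotin (IA-DTB) probe, comparing probe-labelled peptide intensities in compound-treated cells against DMSO-treated controls.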
Target,probe-labelled cysteine peptide fold change (10 µM),probe-labelled cysteine peptide fold change (50 µM)
TBL2_Q9Y4P3_240_GQVLSTINTNQMNNTHAAVSPCGR (UniProt Q9Y4P3),0.0972,-0.0426
TAF6L_Q9Y6J9_122_GCAETAVR (UniProt Q9Y6J9),-0.0238,0.0809
TBL3_Q12788_413_AGQVMCVAQGSGHTHSVGTVCCSR (UniProt Q12788),0.0778,0.0389
TBC1D13_Q9NVG8_204_NSVPSSLNEYEVLPNGCEAHWEVVER (UniProt Q9NVG8),0.164,-0.0677
TALDO1_P37837_250_ALAGCDFLTISPK (UniProt P37837),0.0137,-0.0255
TANGO6_Q9C0B7_375_DICPQVLDLFHFQDK (UniProt Q9C0B7),-0.119,-0.109
TATDN1_Q6P1N9_113+123_VVAIGECGLDFDRLQFCPK (UniProt Q6P1N9),-0.314,-0.198
SYK_P43405_259_VLTVPCQK (UniProt P43405),0.0293,0.0389
TBC1D24_Q9ULP9_386_FYFQCEGHEPTLLLIK (UniProt Q9ULP9),0.226,0.199
TBL3_Q12788_555_LWALQDFSCLK (UniProt Q12788),0.196,0.203
TCEA1_P23193_291_SADEPMTTFVVCNECGNR (UniProt P23193),0.236,0.0324
TBC1D13_Q9NVG8_145_ATDYPCLLILDPQNEFETLR (UniProt Q9NVG8),-0.000134,0.36
TACC1_O75410_794_ICDELIAK (UniProt O75410),0.0492,0.188
TAPBPL_Q9BX59_283_DASLTLPGLTIQDEGTYICQITTSLYR (UniProt Q9BX59),0.341,0.391
TBC1D1_Q86TI0_676_ACDSSSR (UniProt Q86TI0),0.525,0.352
TAX1BP1_Q86VP1_350_EDTCFLK (UniProt Q86VP1),0.0662,-0.034
TAOK2_Q9UL54_623_EQLQQCQAEEEAGLLRR (UniProt Q9UL54),0.037,-0.0688
TATDN1_Q6P1N9_150_LPMFLHCR (UniProt Q6P1N9),-0.11,-0.119
TBCD_Q9BTW9_420_AWHGGCLALAELGRR (UniProt Q9BTW9),-0.118,-0.156
SWAP70_Q9UH65_94_MCWTLCVK (UniProt Q9UH65),0.0436,0.153
TARBP1_Q13395_1556_SLDLTQYCFPEK (UniProt Q13395),-0.0113,0.0163

Target,probe-labelled cysteine peptide fold change (10 µM),probe-labelled cysteine peptide fold change (50 µM)
TACC1_O75410_715_CAQDYLAR (UniProt O75410),-0.0907,-0.226
TBCB_Q99426_83_LDQEDALLGSYPVDDGCR (UniProt Q99426),0.0971,0.0789
TAF5_Q15542_273_FHGDQECYYQDDLR (UniProt Q15542),0.241,-0.0768
TATDN2_Q93075_563_EDLVWGAFGCHPHFAR (UniProt Q93075),-0.0451,0.0648
TBC1D1_Q86TI0_322_EISFCSQGIR (UniProt Q86TI0),-0.00609,-0.0164
TBC1D13_Q9NVG8_145_ATDYPCLLILDPQNEFETLRK (UniProt Q9NVG8),-0.167,-0.109
SYVN1_Q86TM6_329_QQTCPTCR (UniProt Q86TM6),-0.0271,-0.00508
TBCK_Q8TEA7_871_ICILDGGINK (UniProt Q8TEA7),0.0276,0.0693
TBC1D13_Q9NVG8_261_EHAEADTFFCFTNLMAEIRDNFIK (UniProt Q9NVG8),-0.0165,-0.0773
TAF2_Q6P1X5_701_MSACFCLAK (UniProt Q6P1X5),0.02,0.182
TBC1D5_Q92609_219_QGMHELLAPIVFVLHCDHQAFLHASESAQPSEEMK (UniProt Q92609),0.192,-0.161
TBL3_Q12788_696_DPEACEK (UniProt Q12788),-0.0604,-0.00906
TAF5L_O75529_318_IHLACDILEEEDDEDDNAGTEMK (UniProt O75529),0.085,-0.00589
TARBP2_Q15633_73_VTVGDTSCTGQGPSK (UniProt Q15633),0.0512,0.117
TATDN1_Q6P1N9_261_DRNEPCHIIQILEIMSAVR (UniProt Q6P1N9),0.226,0.114
TBC1D22A_Q8WUA7_151_SVSESHTSCPAESASDAAPLQR (UniProt Q8WUA7),-0.0514,-0.228
TAF6_P49848_141_AHWLSIEGCQPAIPENPPPAPK (UniProt P49848),-0.132,-0.0655
SYNJ2_O15056_63_LTDAYGCLGELR (UniProt O15056),-0.0112,0.0612
TARS_P26639_137_VNNVVWDLDRPLEEDCTLELLK (UniProt P26639),0.135,-0.116
TANGO6_Q9C0B7_15_QAVGSGAQETCGLDR (UniProt Q9C0B7),-0.0466,-0.0698
SYNGR2_O43760_59_QMYCVFNR (UniProt O43760),-0.0267,-0.0129

Target,probe-labelled cysteine peptide fold change (10 µM),probe-labelled cysteine peptide fold change (50 µM)
TACC3_Q9Y6A5_459_LGQPAAEQLHAGPATEEPGPCLSQQLHSASAEDTPVVQLAAETPTAESK (UniProt Q9Y6A5),0.134,-0.465
TARS_P26639_656_FMADIDLDPGCTLNKK (UniProt P26639),-0.277,-0.337
TBC1D8B_Q0IIM8_840_HHDPSLPYLEQYQIDCQQFR (UniProt Q0IIM8),0.123,0.218
TACC3_Q9Y6A5_20_NTENCDFLFSPPEVTGR (UniProt Q9Y6A5),-0.00863,-0.107
TACC3_Q9Y6A5_828_ICDDLISK (UniProt Q9Y6A5),-0.041,0.139
TBL1XR1_Q9BZK7_367_WDPTGNLLASCSDDMTLK (UniProt Q9BZK7),0.16,0.072
TARS_P26639_413+417_ELFALKPMNCPGHCLMFDHRPR (UniProt P26639),-0.0314,0.0127
TBCC_Q15814_6_MESVSCSAAAVR (UniProt Q15814),0.458,0.287
SYTL4_Q96C24_596_LEDLQHMCLELTVWDREPLASNDFLGGVR (UniProt Q96C24),0.0234,0.105
SYNRG_Q9UMZ2_625_NPLNLADLDMFSSVNCSSEK (UniProt Q9UMZ2),-0.0694,-0.221
TAF4_O00268_1066_DLIFCLENER (UniProt O00268),0.0807,0.15
TCEAL4_Q96EI5_34_MENEEQPQDERKPEVTCTLEDK (UniProt Q96EI5),-0.333,-0.301
TBL1X_O60907_571_VGASASDGSVCVLDLRK (UniProt O60907),-0.176,-0.16
TAOK3_Q9H2K8_795_LDEAQEAECQALR (UniProt Q9H2K8),-0.187,0.145
TBCK_Q8TEA7_54_LCQYVDISR (UniProt Q8TEA7),0.0282,0.131
TBC1D14_Q9P2M4_81_HSLQSVDSGIPTLEIGNPEPVPCSAVHVR (UniProt Q9P2M4),-0.163,-0.164
TCEA2_Q15560_173_LSAQIEECIFR (UniProt Q15560),-0.154,-0.172
TAOK1_Q7L7X3_730_QFQDTCK (UniProt Q7L7X3),0.0139,0.00821
TANK_Q92844_177_LNIPDTATETQCSVPIQCTDK (UniProt Q92844),-0.141,-0.16
TAOK2_Q9UL54_643_QYFELQCR (UniProt Q9UL54),0.172,0.167
TBL3_Q12788_41+43_AQLDQTGQHLFCVCGTR (UniProt Q12788),-0.0435,0.0935

Target,probe-labelled cysteine peptide fold change (10 µM),probe-labelled cysteine peptide fold change (50 µM)
TAF7_Q15545_72_LVDLPCVMESLK (UniProt Q15545),-0.198,-0.107
TACC3_Q9Y6A5_206_VTPASETLEDPCR (UniProt Q9Y6A5),0.0528,-0.154
TAP2_Q03519_362_EALEQCR (UniProt Q03519),0.00775,-0.0584
TADA1_Q96BN2_139_LCSHTMMLPTR (UniProt Q96BN2),-0.0207,-0.197
TAF11_Q15544_173_VFVGEVVEEALDVCEK (UniProt Q15544),0.0419,0.284
TAF5_Q15542_661_LWDVLNGNCVR (UniProt Q15542),-0.246,0.0571
TACC3_Q9Y6A5_236_AETPHGAEEECR (UniProt Q9Y6A5),-0.0379,-0.0197
TBCD_Q9BTW9_269_EDCLPYAATVLR (UniProt Q9BTW9),-0.198,-0.0833
SYNE3_Q6ZMZ3_51_ICQLEPEGR (UniProt Q6ZMZ3),-0.131,-0.073
SYNPO2_Q9UMS6_290_VEVILDCSDR (UniProt Q9UMS6),-0.0945,-0.224
TARS_P26639_343_IGRDQELYFFHELSPGSCFFLPK (UniProt P26639),-0.112,0.0666
TARS_P26639_254+261_CGPLIDLCR (UniProt P26639),-0.109,-0.0779
TATDN3_Q17R31_13_AAGVGLVDCHCHLSAPDFDRDLDDVLEK (UniProt Q17R31),-0.083,-0.192
TBL2_Q9Y4P3_247_FVASCGFTPDVK (UniProt Q9Y4P3),-0.0978,-0.0254
SYMPK_Q92797_1068_CPELREPLLAHVR (UniProt Q92797),-0.209,-0.0724
TAPBP_O15533_115_WASGLTPAQNCPR (UniProt O15533),0.107,-0.0566
TARSL2_A2RTX5_74_LCLAEER (UniProt A2RTX5),-0.0772,-0.0224
TBC1D23_Q9NUY8_399_QSIESGSIAGGEHLCFMGSGR (UniProt Q9NUY8),0.077,0.00346
SYNCRIP_O60506_211_GYAFVTFCTK (UniProt O60506),-0.111,0.00391
TBL3_Q12788_728_HCHEAQAVLGVLLRR (UniProt Q12788),-0.286,-0.143
TARS2_Q9BW92_322_IGKEQELFFFHELSPGSCFFLPR (UniProt Q9BW92),-0.452,-0.018
